According to paper PMC6759196:
Results are given in words; binding and its absence hold for the method and conditions named.

Target: Smlt3024 (Stenotrophomonas maltophilia K279a) (UniProt B2FJJ5)
Assay: SEC-MALS; Superdex 200 10/300 GL coupled to a Wyatt MALS detector; isolated proteins and their mixture analysed, peaks checked by SDS-PAGE; dn/dc = 0.185 mL/g; both purified

Q: With Smlt3024 (from UniProt B2FJJ5 1-440) as the substance, how does the binding read?
A: no binding
